Reference: PMC9793311
No constants are given. Whether binding was seen depends on the method and setting. Sequences can lack the tags named with a protein.

Amino acid sequences for entries named in this document (tags omitted). A change or cut given only in a name is not applied to a line headed by its entry.
UniProt P40793: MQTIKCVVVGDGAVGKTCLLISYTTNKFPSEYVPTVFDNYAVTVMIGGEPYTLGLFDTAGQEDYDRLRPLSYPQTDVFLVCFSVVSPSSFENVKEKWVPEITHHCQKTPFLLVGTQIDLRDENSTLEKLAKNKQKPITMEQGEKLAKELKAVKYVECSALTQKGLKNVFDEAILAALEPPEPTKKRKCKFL

Biological target: T1, MBP-Par-3 PDZ1-APM (Drosophila melanogaster) (UniProt O96782)
T1 sequence: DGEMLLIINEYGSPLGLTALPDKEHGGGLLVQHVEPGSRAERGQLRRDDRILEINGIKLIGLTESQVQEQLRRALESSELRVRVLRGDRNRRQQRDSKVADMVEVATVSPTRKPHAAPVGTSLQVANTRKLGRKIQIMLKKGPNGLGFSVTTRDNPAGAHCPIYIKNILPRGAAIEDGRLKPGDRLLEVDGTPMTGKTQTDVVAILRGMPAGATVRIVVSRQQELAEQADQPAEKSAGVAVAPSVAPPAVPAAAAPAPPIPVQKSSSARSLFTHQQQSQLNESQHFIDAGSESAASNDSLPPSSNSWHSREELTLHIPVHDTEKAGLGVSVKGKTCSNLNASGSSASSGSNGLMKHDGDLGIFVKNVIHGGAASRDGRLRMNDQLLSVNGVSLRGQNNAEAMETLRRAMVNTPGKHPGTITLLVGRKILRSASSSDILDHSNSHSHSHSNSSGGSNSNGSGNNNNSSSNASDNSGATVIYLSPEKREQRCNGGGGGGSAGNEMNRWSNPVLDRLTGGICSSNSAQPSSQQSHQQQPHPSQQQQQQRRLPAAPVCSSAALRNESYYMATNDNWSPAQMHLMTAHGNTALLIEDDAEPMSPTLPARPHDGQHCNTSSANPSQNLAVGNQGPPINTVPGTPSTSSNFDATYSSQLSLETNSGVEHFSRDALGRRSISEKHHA
Assay: pull-down; MBP-Par-3 PDZ1-APM on amylose resin (from bacterial lysate, washed 4x); soluble purified proteins added, 10 min at room temperature; 20 mM Hepes pH 7.5, 100 mM NaCl, 5 mM MgCl2, 0.5% Tween-20, 1 mM DTT, 200 uM ATP; Coomassie-stained gel; both purified

Substance: His-Cdc42^Q61L (from UniProt P40793 1-191)
- binding: no binding
